Data reported in paper PMC9615392.
No constants are given. Whether binding was seen depends on the method and setting. In cells and extracts the contact can be indirect. Some entries that bind do so weakly or less than the wild type.

The chains behind the UniProt entries cited, without tags or fusion partners.
UniProt Q8IY33: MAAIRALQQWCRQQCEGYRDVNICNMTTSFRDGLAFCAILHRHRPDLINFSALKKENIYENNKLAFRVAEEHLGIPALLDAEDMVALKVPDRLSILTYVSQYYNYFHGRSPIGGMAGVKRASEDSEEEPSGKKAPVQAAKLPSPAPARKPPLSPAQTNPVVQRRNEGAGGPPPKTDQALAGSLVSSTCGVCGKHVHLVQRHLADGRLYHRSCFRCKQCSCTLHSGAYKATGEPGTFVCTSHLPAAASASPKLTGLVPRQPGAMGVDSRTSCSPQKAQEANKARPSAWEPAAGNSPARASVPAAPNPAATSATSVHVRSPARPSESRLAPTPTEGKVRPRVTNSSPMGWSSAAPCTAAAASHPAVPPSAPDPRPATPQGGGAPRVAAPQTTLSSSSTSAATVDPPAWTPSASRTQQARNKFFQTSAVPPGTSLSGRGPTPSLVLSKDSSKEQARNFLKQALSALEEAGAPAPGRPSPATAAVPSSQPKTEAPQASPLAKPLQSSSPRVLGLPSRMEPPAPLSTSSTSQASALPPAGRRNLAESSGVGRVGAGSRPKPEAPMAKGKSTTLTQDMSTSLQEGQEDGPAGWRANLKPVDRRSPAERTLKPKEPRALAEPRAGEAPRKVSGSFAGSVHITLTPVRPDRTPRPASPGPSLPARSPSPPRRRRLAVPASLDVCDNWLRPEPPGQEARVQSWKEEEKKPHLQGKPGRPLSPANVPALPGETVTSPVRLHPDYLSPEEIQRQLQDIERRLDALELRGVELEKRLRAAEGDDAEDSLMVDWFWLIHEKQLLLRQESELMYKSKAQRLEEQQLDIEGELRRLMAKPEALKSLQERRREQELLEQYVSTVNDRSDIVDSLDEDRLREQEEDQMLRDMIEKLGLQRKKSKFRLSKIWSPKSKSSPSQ
UniProt P19474: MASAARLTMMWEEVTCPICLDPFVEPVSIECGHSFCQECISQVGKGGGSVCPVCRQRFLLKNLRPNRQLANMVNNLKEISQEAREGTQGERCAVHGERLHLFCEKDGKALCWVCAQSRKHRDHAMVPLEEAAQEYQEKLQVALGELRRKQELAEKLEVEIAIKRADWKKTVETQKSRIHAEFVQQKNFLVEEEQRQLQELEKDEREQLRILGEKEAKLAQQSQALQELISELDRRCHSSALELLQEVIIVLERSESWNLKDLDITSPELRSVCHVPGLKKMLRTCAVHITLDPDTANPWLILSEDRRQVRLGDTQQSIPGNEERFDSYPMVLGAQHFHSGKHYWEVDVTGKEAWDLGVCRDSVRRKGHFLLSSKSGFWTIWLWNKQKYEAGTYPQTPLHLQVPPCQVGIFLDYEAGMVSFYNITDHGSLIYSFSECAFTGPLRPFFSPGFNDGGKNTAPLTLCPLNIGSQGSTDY

What was measured:
His-MICALL2 (human) = His-MICALL2 (human) (UniProt Q8IY33); experiment: co-IP; HEK293 cells expressing His-MICALL2 and Flag-TRIM21 or their truncation mutants; immunoprecipitation with α-Flag or His antibody; Western blot
[1] = target: Molecule interacting with CasL-like protein 2 (MICALL2), endogenous (human (endogenous in HCT8)) (UniProt Q8IY33); experiment: co-IP; endogenous proteins in HCT8 cell lysates; antibodies overnight at 4 °C, Protein A/G-Agarose; Western blot

Substance	binding (His-MICALL2 (human))	binding [1]
Flag-TRIM21 (from UniProt P19474 1-475)	binds	–
Tripartite motif-containing protein 21 (TRIM21), endogenous (from UniProt P19474 1-475)	–	binds
